Reference: patent US20020062009A1 (GlaxoSmithKline, published 2002)

Target: purified human alpha v beta 3 integrin (biotinylated) (human)
Experiment: ORIGEN electrochemiluminescence; antibody dilutions with biotinylated purified integrin, captured on streptavidin beads

- binding: binds
B1: murine anti-integrin antibody B9 (antibody, V domains shown)
VH: QVQLQQSGAELMKPGASVKISCKATGYTFSSYWIEWVKQRPGHGLEWIGEILPRSGNTNYNEKFKGKATFTAETSSNTAYMQLSSLTPEDSAVYYCSSRGVRGSMDYWGQGTSVTVSS
VL: DIQMTQTTSSLSASLGDRVTITCRSSQDISNFLNWYQQKPDGTVKLLIYYTSTLHSGVPSRFSGSGSGTDYSLTISNLEQEDIATYFCQQGNTLPWTFGGGTNLEIKR

These are yes or no findings as the source states them, for the method shown. Binding can be weak; no strength is given.
